# Source: PubChem BioAssay (Tox21)
# All entries are inconclusive by the source's own rule. Clear calls are listed elsewhere. Calls come from the whole dose curve; as a rule, active = well fitted cell-killing curve with a large enough effect in the repeat runs; inconclusive = weak or mixed curves, or effect the other way; inactive = flat fitted curve, though single readings scatter.
# Test: cAMP Responsive Elements (CRE) small molecule agonists, cell-based qHTS assay: qHTS cell viability counter screen (AID 2060914);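 note: viability read after 3 h of compound exposure; nearly all actives have a fitted effect of over 50% in size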
# Settings: CRE-bla HEK293T viability, CellTiter-Glo luminescence, 5 h
# Text: National Center for Advancing Translational Sciences [NCATS]
# Division of Preclinical Innovation [DPI]
# U.S. Environmental Protection Agency [EPA]
# National Institutes of Environmental Health Sciences [NIEHS]
# National Toxicology Program [NTP]
# U.S. Food and Drug Administration [FDA]
# CREB (cyclic-AMP Responsive Element Binding Protein) is a cellular transcription factor. It binds to certain DNA sequences called cAMP Responsive Elements (CRE) and regulates the transcription of the genes. […] This cell line can be used to find agonists/antagonists of the cyclic AMP signaling pathway. The activation of the report gene under culture conditions can be detected by fluorescence intensity. […]
# CRE-bla Hek 293T cells were suspended in assay medium (DMEM containing 10% dialyzed FBS, 0.1 mM NEAA, 1 mM sodium pyruvate and 25 mM HEPES) and dispensed at 2,000 cells/5 uL /well into 1536-well black wall/clear bottom plates using a Multidrop Combi (ThermoFisher Scientific, Waltham, MA) dispenser. […] The plates were incubated at room temperature for 2 h, then fluorescence intensities were measured using an Envision plate reader (PerkinElmer, Shelton, CT) at Excitation 405nm, Emission 460nm and 530nm. The % activity was determined from the ratio of 460nm/530nm. For cell viability readout that measures cytotoxicity, 4 uL /well of CellTiter-Glo reagent was added into the assay plates using Bioraptr FRD. […]
# Potency is the fitted concentration of half-maximal effect.
smiles,measurement,value
N#CSc1ccc([N+](=O)[O-])cc1[N+](=O)[O-],Potency,inconclusive: 68.6 µM
